According to publication PMC12706078:
Results are given in words; binding and its absence hold for the method and conditions named. Binding seen in cells or lysates may run through a third protein. Some entries that bind do so weakly or less than the wild type. Tags and fused reporters may be left off the sequences shown.

The chains behind the UniProt entries cited, without tags or fusion partners. Where a name states a change or a piece, a line headed by the entry shows the natural chain unless it says otherwise. A line that says so, or that is headed by a name, gives the form on record, which may keep a tag or linker. Residues count along the entry.
Flag-tagged PD-L1 (PD-L1-Flag) (Q9NZQ7, residues 19-290): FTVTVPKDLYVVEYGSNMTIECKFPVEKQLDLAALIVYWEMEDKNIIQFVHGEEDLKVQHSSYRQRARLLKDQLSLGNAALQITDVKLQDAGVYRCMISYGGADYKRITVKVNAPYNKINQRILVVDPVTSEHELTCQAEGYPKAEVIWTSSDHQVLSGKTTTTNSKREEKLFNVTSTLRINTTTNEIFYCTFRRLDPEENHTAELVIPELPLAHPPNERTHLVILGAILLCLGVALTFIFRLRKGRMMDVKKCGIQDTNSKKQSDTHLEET
PD-L1-Flag C250/272A double mutant (Q9NZQ7-1, form named): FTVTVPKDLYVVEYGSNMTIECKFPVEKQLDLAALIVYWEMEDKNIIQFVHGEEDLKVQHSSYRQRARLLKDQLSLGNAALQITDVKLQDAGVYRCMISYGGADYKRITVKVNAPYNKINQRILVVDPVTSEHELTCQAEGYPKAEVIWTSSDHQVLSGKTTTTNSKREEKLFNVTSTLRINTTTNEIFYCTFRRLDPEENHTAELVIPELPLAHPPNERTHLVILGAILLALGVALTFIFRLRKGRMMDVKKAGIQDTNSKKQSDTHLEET
PD-L1-Flag C250A mutant (Q9NZQ7-1, form named): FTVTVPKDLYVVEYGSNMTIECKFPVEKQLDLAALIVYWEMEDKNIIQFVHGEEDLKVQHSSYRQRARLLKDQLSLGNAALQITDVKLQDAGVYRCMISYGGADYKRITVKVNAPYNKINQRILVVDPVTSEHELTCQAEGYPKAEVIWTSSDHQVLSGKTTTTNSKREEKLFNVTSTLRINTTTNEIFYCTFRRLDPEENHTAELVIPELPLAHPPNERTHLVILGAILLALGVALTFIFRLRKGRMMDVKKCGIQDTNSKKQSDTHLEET
PD-L1-Flag C272A mutant (Q9NZQ7-1, form named): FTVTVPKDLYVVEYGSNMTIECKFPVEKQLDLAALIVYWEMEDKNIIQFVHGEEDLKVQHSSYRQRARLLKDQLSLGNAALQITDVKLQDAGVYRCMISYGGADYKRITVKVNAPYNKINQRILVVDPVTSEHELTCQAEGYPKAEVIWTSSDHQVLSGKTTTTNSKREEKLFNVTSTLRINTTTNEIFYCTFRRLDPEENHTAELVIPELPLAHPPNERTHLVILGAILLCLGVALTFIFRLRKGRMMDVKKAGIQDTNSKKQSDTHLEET

Legend:
[1] = biological target: T1, biotinylated-tagged UBL3 (Biotin-UBL3) (UniProt O95164); test: co-IP; UBL3 modification assay: lysates of co-transfected MDA-MB-231 cells (lysis without DTT), Biotin-UBL3 captured on NeutrAvidin agarose/streptavidin beads 18 h at 4 °C, eluted without 2-mercaptoethanol (βME-, non-reducing), anti-Flag blot, signals above 70 kDa; also done after statin treatment of the cells (modification reduced, Supplementary Fig. S5)
T1 sequence: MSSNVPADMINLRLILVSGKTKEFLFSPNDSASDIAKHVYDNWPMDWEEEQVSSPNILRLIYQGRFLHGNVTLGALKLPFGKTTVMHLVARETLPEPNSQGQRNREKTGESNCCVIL

[2] = biological target: T1, biotinylated-tagged UBL3 (Biotin-UBL3); test: condition: only immunoprecipitates treated with 2-mercaptoethanol (βME+); co-IP; same precipitates as in a1, but the eluate was treated with 2-mercaptoethanol for 5 min at 95 °C (βME+, reducing) before the anti-Flag blot

| Substance | binding [1] | binding [2] |
| --- | --- | --- |
| Flag-tagged PD-L1 (PD-L1-Flag) (from UniProt Q9NZQ7-1 19-290) | binds | no binding |
| PD-L1-Flag C250/272A double mutant (from UniProt Q9NZQ7-1 19-290) | binds |  |
| PD-L1-Flag C250A mutant (from UniProt Q9NZQ7-1 19-290) | binds |  |
| PD-L1-Flag C272A mutant (from UniProt Q9NZQ7-1 19-290) | binds |  |
